# Experimental data published in PubChem BioAssay AID1347076 (National Center for Advancing Translational Sciences (NCATS), 2019).
# The campaign covered roughly 400,000 compounds. About 13,000 (3.2%) were called active. Inconclusive results, whose numbers are uncertain, are shown with a selection of clear calls. The call rests on the fitted dose curve; in most records, active means well fitted cell-killing curve with a large enough effect; inconclusive means small, poorly fitted or top-dose-only effect, or effect the other way; inactive means flat fitted curve, though single readings scatter. Where the call is inconclusive, the potency comes from a doubtful curve fit.
# Assay: qHTS assay for MDR1-selective chemotherapeutics: Primary screen using the drug-selected MDR subline cells KB-V1; further: nearly all actives have a fitted effect of over 60% in size
# Settings: KB-V1 MDR cells viability, CellTiter-Glo, 72 h; activity change, negative = cytotoxicity: at 46.1 µM (top of the series)
# How it was run: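 Readout: CellTiter-Glo luminescence, 10 min after addition. Cells: KB-V1 MDR subline, 72 h at 37 degrees C with compound. Analysis: corrected, normalized data fitted to concentration-effect curves.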
# On the % scale 0 is the no-effect control and ±100 the full control effect; potency means the concentration at half of the fitted maximal effect.
Structure (SMILES),Potency,"activity change, negative = cytotoxicity"
CN(C)C(CNC(=O)c1ccc(NS(=O)(=O)c2ccc(F)cc2)cc1)c1ccco1 (stereo not drawn),inactive,–
CCN1CCN(C(=O)CN(C)S(=O)(=O)c2ccc(OC)c(C)c2)CC1,"inconclusive: 35.5 µM [cytotoxic, single point]",–
CCCCN(C(=O)CCC(=O)Nc1cc(C)on1)C(C(=O)NC1CCCC1)c1ccccc1C (stereo not drawn),"inconclusive: 14.6 µM [cytotoxic, partial curve]",–
O=C(NC1(C(F)(F)F)N=C(c2ccccc2)N(Cc2ccccc2)C1=O)c1ccc(F)cc1 (stereo not drawn),inactive,–
C/C(=N\NC(=O)CNc1cccc(Cl)c1C)c1cccs1,inactive,–
CC(=O)c1ccc(Nc2c([N+](=O)[O-])ccc3nonc23)cc1,"inconclusive: 29.1 µM [cytotoxic, single point]",–
CC1(C)Oc2ccc(C(=O)N/N=C/c3ccc(O)cc3)cc2NC1=O,"inconclusive: 7.31 µM [rising, partial curve, poor fit]",–
COC(=O)c1sc(NC(=O)Cc2cccs2)nc1C,"inconclusive: 18.4 µM [cytotoxic, single point]",–
Cc1sc(NC(=O)C2c3ccccc3Oc3ccccc32)c(C(=O)OC(C)C)c1C,inactive,–
CCN(c1cccc(C)c1)S(=O)(=O)c1cc2c3c(c1)CCC(=O)N3CCC2,"inconclusive: 20.6 µM [cytotoxic, single point]",–
CCc1nn2c(=O)c(S(=O)(=O)Nc3ccc(C)cc3C)c(C)nc2s1,"inconclusive: 29.1 µM [cytotoxic, single point]",–
COc1ccc(NC(=O)Nc2nnc(C(C)C)s2)cc1,active: 16.4 µM,–
CCCCn1c(N)c(N(CCOC)C(=O)c2ccc(C)o2)c(=O)[nH]c1=O,inactive,–
COc1ccc(-c2nc(CSCC(=O)NCCc3ccc(OC)c(OC)c3)c(C)o2)cc1,inactive,–
CCCCCn1c(SCCCC)nc2c1c(=O)[nH]c(=O)n2C,"inconclusive: 20.6 µM [cytotoxic, partial curve]",–
CCCNC(=O)C1(C)CCCN(Cc2cccc(C(F)(F)F)c2)C1 (stereo not drawn),inactive,–
O=c1c2ccccc2ncn1Cc1nc2ccccc2s1,inactive,–
COc1ccc(C2C3=C(CC(C)(C)CC3=O)N(C)C3=C2C(=O)CC(C)(C)C3)cc1,"inconclusive: 4.11 µM [cytotoxic, full curve, poor fit]",–
O=C(CSc1nc2ccccc2n1S(=O)(=O)c1ccccc1)N1CCCC1,inactive,–
COc1ccc(CNC(=O)CN2CCN(S(=O)(=O)c3c(C)c(C)cc(C)c3C)CC2)cc1OC,inactive,–
O=C1CS/C(=N/N=C/c2cccs2)N1,"inconclusive: 20.6 µM [cytotoxic, single point]",–
Cc1cc(N2CCCC2)nc2ccc(NC(=S)NCCCN3CCC(C)CC3)cc12,"inconclusive: 29.1 µM [cytotoxic, partial curve, poor fit]",–
COc1ccccc1OCCNC(=O)c1ccco1,inactive,–

# Whole records as entered above. Order of values: Potency | activity change, negative = cytotoxicity
# `O=C(NC1(C(F)(F)F)N=C(c2ccccc2)N(Cc2ccccc2)C1=O)c1ccc(F)cc1` (stereo not drawn) in the list: inactive | –
# `CC(=O)c1ccc(Nc2c([N+](=O)[O-])ccc3nonc23)cc1` in the list: inconclusive: 29.1 µM [cytotoxic, single point] | –

# (list continues)

Structure (SMILES),Potency,"activity change, negative = cytotoxicity"
CN(C)C(=O)c1ccc(NC(=O)COc2cccc3c2OC(C)(C)C3)cc1,"inconclusive: 13 µM [cytotoxic, partial curve, poor fit]",–
Cc1cc(NC(=O)CSc2nc3c(cc2C#N)CCCC3)no1,"inconclusive: 13 µM [cytotoxic, partial curve, poor fit]",–
O=C(C[C@H]1C[C@H](C(=O)N2CCCCC2)[C@@]2(CCc3ccccc3)c3[nH]c4cc(-c5ccco5)ccc4c3CCN2C1=O)NCCN1CCOCC1,"inconclusive: 29.1 µM [cytotoxic, single point]",–
COc1cc(-c2cnc3c(NC(C)=O)cc(-c4ccc(N5CCN(C)CC5)cc4)cn23)cc(OC)c1OC,"inconclusive: 29.1 µM [cytotoxic, single point]",–
O=C(Cc1cccc2ccccc12)N/N=C/c1ccncc1,"inconclusive: 29.1 µM [cytotoxic, single point]",–
COc1ccccc1OCC(=O)N1CCCC(Nc2cccc(F)c2)C1 (stereo not drawn),"inconclusive: 29.1 µM [cytotoxic, single point]",–
CC(=O)Nc1c(O)nc(SCC(=O)N2CCN(c3ccc(F)cc3)CC2)[nH]c1=O,"inconclusive: 29.1 µM [cytotoxic, single point]",–
CC1CCC(=NNc2ccc(C(F)(F)F)cc2[N+](=O)[O-])CC1 (stereo not drawn),"inconclusive: 16.4 µM [rising, single point]",–
N#Cc1ccccc1NC(=O)Nc1ccc(Cl)cc1,"inconclusive: 29.1 µM [rising, partial curve, poor fit]",–
COc1ccc([N+](=O)[O-])cc1NC(=O)CCSCCc1ccccn1,inactive,–
CSc1nc(N)nc(SCC(=O)CC(=O)OC(C)C)c1C#N,"inconclusive: 16.4 µM [cytotoxic, partial curve]",–
COc1ccc(OC)c(C2CC(=O)N3CN(c4ccccc4)CSC3=C2C#N)c1 (stereo not drawn),inactive,–
C/C=C(\C)C(=O)O[C@H](c1cc2ccc(=O)oc2cc1OC)[C@@H](O)C(C)(C)O,inactive,–
CCCc1nc2sc3c(=O)n(N)cnc3c2c2c1CCCC2,"inconclusive: 29.1 µM [rising, single point]",–
Cc1nn(Cc2ccccc2)c(C)c1NC(=O)CCCn1nc([N+](=O)[O-])c(Cl)c1C,"inconclusive: 16.4 µM [cytotoxic, single point]",–
COc1ccc(-c2nnc(Nc3nc4c(OC)cccc4s3)o2)c(OC)c1,"inconclusive: 3.66 µM [cytotoxic, full curve]",–
Cc1cc(NC(=O)CSc2nc3ccccc3n2CC(=O)N2CCC(C)CC2)no1,"inconclusive: 10.3 µM [cytotoxic, partial curve]",–
CN1c2ccccc2C(C)(C)[C@]12C=Cc1cc(O)ccc1O2,inactive,–
CCO[C@H]1OC(C(N)=O)=C[C@@H](C(C)(C)C)[C@@H]1CCCO,inactive,–
Cc1ccc(C)c(N(CC(=O)Nc2ccccc2C(=O)NCc2ccco2)S(=O)(=O)c2ccccc2)c1,"inconclusive: 7.31 µM [cytotoxic, partial curve, poor fit]",–
CC(C)(C)C(=O)Nc1ccc(C(=O)COC(=O)C2=COCCO2)cc1,"inconclusive: 23.1 µM [rising, partial curve, poor fit]",–
Cc1ccc(S(=O)(=O)N(C)Cc2ccc(C(=O)N/N=C/c3ccc(OC(F)F)cc3OC(F)F)cc2)cc1,active: 5.8 µM,–
CC(C)(C)NC(=S)Nc1ccc(Nc2ccccc2)cc1,active: 16.4 µM,–

# An excerpt of these results, bar-delimited:
Structure (SMILES) | Potency | activity change, negative = cytotoxicity
Cc1cc(NC(=O)CSc2nc3ccccc3n2CC(=O)N2CCC(C)CC2)no1 | inconclusive: 10.3 µM [cytotoxic, partial curve] | –
CN1c2ccccc2C(C)(C)[C@]12C=Cc1cc(O)ccc1O2 | inactive | –
CCO[C@H]1OC(C(N)=O)=C[C@@H](C(C)(C)C)[C@@H]1CCCO | inactive | –
Cc1ccc(C)c(N(CC(=O)Nc2ccccc2C(=O)NCc2ccco2)S(=O)(=O)c2ccccc2)c1 | inconclusive: 7.31 µM [cytotoxic, partial curve, poor fit] | –

# The listing continues:

Structure (SMILES),Potency,"activity change, negative = cytotoxicity"
COc1ccc(C(C(=O)NC(C)(C)C)N(C(=O)CNC(=O)c2cccs2)c2ccc(C)cc2)cc1OC (stereo not drawn),"inconclusive: 20.6 µM [cytotoxic, partial curve, poor fit]",–
CCc1c(C)nc(Nc2nc(C)c3cc(OC)ccc3n2)[nH]c1=O,"inconclusive: 25.9 µM [cytotoxic, partial curve, poor fit]",–
O=C(O)CSc1ncnc2scc(-c3ccc(Br)cc3)c12,–,inconclusive: 9.17%
O=C(Cn1cnc2ccccc2c1=O)c1ccc(OC(F)F)cc1,inactive,–
Cc1ccc(C(=O)NCc2ccco2)cc1,inactive,–
COCCCNS(=O)(=O)c1cccc(S(=O)(=O)c2cccc(S(=O)(=O)NCCCOC)c2)c1,"inconclusive: 16.4 µM [rising, single point]",–
CCOC(=O)Cc1cc(=O)n2[nH]c(C)c(-c3ccc(Cl)cc3)c2n1,"inconclusive: 13 µM [cytotoxic, partial curve]",–
COc1ccc(C2C(C(=O)Nc3cccnc3)=C(C)Nc3nc(-c4ccc(OC)c(OC)c4)nn32)cc1 (stereo not drawn),"inconclusive: 29.1 µM [rising, single point]",–
COC(=O)c1sccc1NC(=O)c1ccc(OC)c(OC)c1,"inconclusive: 11.6 µM [cytotoxic, partial curve]",–
CC1(C)CC(=O)C=C(c2ccc(-c3ccc(OC(F)(F)F)cc3)cc2)C1=O,"inconclusive: 18.4 µM [cytotoxic, single point]",–
O=S(=O)(c1cccc(-c2nc3n(n2)Cc2ccccc2-3)c1)N1CCCC1,"inconclusive: 8.2 µM [cytotoxic, partial curve]",–
O=C(c1ccc(F)cc1Cl)N(c1ccccn1)C1CCCCC1,"inconclusive: 14.6 µM [cytotoxic, single point]",–
CC(C)C(=O)N1CCN(c2ccccc2NC(=O)Cc2ccc(Cl)cc2)CC1,"inconclusive: 2.59 µM [cytotoxic, full curve, poor fit]",–
C=CCOC(=O)C1=C(C)Nc2nnnn2C1c1cccs1 (stereo not drawn),"inconclusive: 29.1 µM [cytotoxic, single point]",–
COc1ccc(NC(=O)CS(=O)(=O)Cc2ccccc2)c([N+](=O)[O-])c1,"inconclusive: 18.4 µM [cytotoxic, single point]",–
Cc1ccc(NC(=O)c2cc(NC(=O)c3ccco3)ccc2N2CCOCC2)cc1Cl,"inconclusive: 10.3 µM [cytotoxic, partial curve]",–
O=c1c(-c2ccc(Oc3ccccc3)cc2)[n+]([O-])c2ccccc2n1OCc1ccccn1,–,inconclusive: -88.6%
COc1ccc(C(=O)NC(Nc2ccc(C)cc2)C(Cl)(Cl)Cl)cc1 (stereo not drawn),active: 14.6 µM,–
COc1ccc(-c2noc(CCCC(=O)N3CCOCC3)n2)cc1,inactive,–
c1ccc(OCCCCn2cnc3ccccc32)cc1,inactive,–
Cc1onc(-c2ccccc2)c1C(=O)N1CCN(c2ncccc2C(F)(F)F)CC1,"inconclusive: 7.31 µM [cytotoxic, partial curve]",–
C=CC[C@H](CC(=O)OC(C)(C)C)C(=O)OC[C@@H]1CCCN1C(=O)[C@@H](CC=C)CC(=O)NCCO,"inconclusive: 4.11 µM [rising, partial curve, poor fit]",–
